The campaign covered roughly 290,000 compounds. About 800 (0.28%) were called active. Inconclusive results, whose numbers are uncertain, are shown with a selection of clear calls.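 Rule for the calls: active = fall in fluorescence gain of 50% or more versus controls, with final raw signal at or below 3038400; inconclusive = same 50% fall but final raw signal above 3038400; inactive = fall in fluorescence gain under 50%.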 The source holds several records for some structures; these can differ, active in one and inactive in another.
molecular target: CAAX prenyl protease 2 (Saccharomyces cerevisiae (strain ATCC 204508 / S288c)) (UniProt Q03530); assay: yeast Rce1p protease inhibitors, primary screen, biochemical, fluorescence, cell-free homogeneous (AID 2563); details: yeast membranes, quenched prenylated peptide cleavage fluorescence

The chains behind the UniProt entries cited, without tags or fusion partners. Where a name states a change or a piece, a line headed by the entry shows the natural chain unless it says otherwise.
UniProt Q03530: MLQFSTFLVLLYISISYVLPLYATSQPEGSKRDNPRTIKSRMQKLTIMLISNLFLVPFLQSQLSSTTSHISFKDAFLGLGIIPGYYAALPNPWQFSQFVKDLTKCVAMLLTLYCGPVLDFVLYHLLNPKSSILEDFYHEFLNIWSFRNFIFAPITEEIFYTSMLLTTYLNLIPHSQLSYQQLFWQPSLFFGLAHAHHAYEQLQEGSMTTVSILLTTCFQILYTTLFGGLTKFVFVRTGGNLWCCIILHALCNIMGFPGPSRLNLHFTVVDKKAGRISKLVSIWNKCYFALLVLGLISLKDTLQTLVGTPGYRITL

SMILES | outcome
c1ccc(C2NCCc3[nH]cnc32)cc1 (centres undefined) | inactive
Cc1ccnc(-n2c(-c3ccco3)nc3ccccc3c2=O)c1 | active
CC(=O)[C@H]1CC[C@H]2[C@@H]3CC[C@H]4C[C@H](O)CC[C@]4(C)[C@H]3C(=O)C[C@]12C | active
CC(=O)OCC[N+](C)(C)C | active
CCCCCCOc1ccc(CN2CCN(C)CC2)cc1 | inactive
O=c1ccc2cc(O[C@@H]3O[C@@H](CO)[C@H](O)[C@@H](O)[C@@H]3O)c(O)cc2o1 | inconclusive
O=C(COc1ccc2ccc(=O)oc2c1)N1CCC(C(=O)O)(c2ccccc2)CC1 | active
Cc1ccc(-c2cc(-c3ccc(C)cc3)[n+](-c3ccccc3)c(-c3ccc(C)cc3)c2)cc1 | active
COCCCn1c(N)c(C(=O)NCc2ccco2)c2nc3ccccc3nc21 | active
CCCCn1c(=O)c(C=Nc2cccnc2Cl)c(O)n(CCCCl)c1=O | active
Cc1ccc(C)c(NC(=O)CCNC(=O)N2C[C@H]3C[C@@H](C2)c2cccc(=O)n2C3)c1 | inactive
Cc1cccc(OP(=O)(Nc2cccnc2)Oc2cccc(C)c2)c1 | inactive
COc1cccc(-c2nc3ccc(N4CCN(C)CC4)cc3[nH]2)c1 | inconclusive
CCOC(=O)c1c(N)n(CCCOC(=O)c2ccco2)c2nc3ccccc3nc12 | inconclusive

A second format for part of the listing above.
Cc1cccc(OP(=O)(Nc2cccnc2)Oc2cccc(C)c2)c1
  outcome: inactive
COc1cccc(-c2nc3ccc(N4CCN(C)CC4)cc3[nH]2)c1
  outcome: inconclusive

From PubChem BioAssay AID2563 (Broad Institute, 2010)
